Z-score data for 103 sequences are collected here from PubChem BioAssay AID1347423 (Functional Genomics Laboratory (NCATS/FGL), 2020).

The whole screen tested about 52,000 sequences, of which about 210 (0.4%) were called active.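 Rule for the calls: active = gene whose silencing raises cell survival under the drug, median off-target-corrected z-score across its silencing RNAs 2 or more; inactive = the rest.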 The list shows a part of the results.

This test is described as follows: Resistance to Poly (ADP-Ribose) Polymerase inhibitor: Gene Identification via Genome-wide siRNA Screen. To be noted: mouse BRCA2 R2336H ES cells, olaparib, CellTiter-Glo viability; active compounds read high. In outline:
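Mouse BRCA2 R2336H ES cells were reverse-transfected with siRNA (20 nM final), treated at 48 h with 500 nM olaparib, and read by CellTiter-Glo after 72 h. Scores: MAD-based z per siRNA, median per gene, seed off-target correction.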
(In general: Cellular ATP, detected with luciferase, serves as a proxy for viable cell number.)
Turning to “CCGGAGCUUACUGGUGACATT against 4930432J16Rik”, the z-score is inactive: -0.0493.
In the case of GGAGAAGAAUUCUUACAGGTT against Fbxo16, the z-score is inactive: 0.175.
In the case of GGCAUGACUUCCAUUUCCCTT against Zfp297, the z-score is inactive: 0.341.
On to GGAUGUCUCAACAUUCUUCTT against V1rb1, for which the z-score is inactive: 0.448.
On to GGAGAGUCACUGUUGAUGGTT against Sumf1, for which the z-score was inactive: 1.29.
Take GGCAAUUGCACCAUUGAAUTT against Egfl5: the z-score is inactive: 0.346.
As to GGGCAGACCUAAUAGCUUATT against Cycs, the z-score is inactive: 0.982.
As for GGAAGACAAUCGCUGCGUGTT against BC037432, the figure is inactive: -1.02; as for “GCUGCGCAUCCACUUAGAUTT against 1810008K16Rik”, inactive: -0.94.
For GGUGAAAAAGUCUGACUGUTT against Ptn, the z-score was inactive: -0.887.
Regarding GGAAGUGGACUACUUCUUCTT against Olfr1511, the z-score is inactive: -0.859.
Regarding GGUACCUAUGCCAGUUUUGTT against Aqp12, the z-score is inactive: -0.343.
With GGGCUUCUUUGCCACACUUTT against Rho, the z-score was inactive: -1.89.
Take GGGUGAAUUUUGUUUUUGUTT against Kcnj14: the z-score is inactive: 0.585.
As to GCACGGUCAGUUCUGUGAUTT against Fbxl6, the z-score is inactive: -0.984.
In the case of “GGCUACUGUAGGAAGAAAUTT against 9230107O10Rik”, the z-score was inactive: -0.343.
Consider GGUCAAGACUAGCUACUUUTT against Dfna5h, for which the z-score is inactive: -0.672.
CGCAUUAUGAAUGACUACUTT against Svs1: the z-score is inactive: -0.133.
For the sequence GGUCUUUGGACCCUGUUUGTT against Tor1b, the z-score was inactive: 1.89.
For the sequence “CGAAGGGAAGCAAAAUACATT against 2310026E23Rik”, the z-score is inactive: -0.094.
For GGAAGUUGAAAGACUUACGTT against Tnip2, the z-score was inactive: -1.55.
As for GGAACAAAACAAAUAGCUATT against BC027127, the figure is inactive: 1.49; as for GGAUCAGACCAAACUUCAATT against Glrb, inactive: -0.707.
Take CCAGAGUUCUGGGAUUCCATT against Cyp2c66: the z-score is inactive: -0.884.
In the case of GGAUCCUGUCAAAGAUAAUTT against Zfp592, the z-score is inactive: -0.116.
On to GCGUGUAAUAUUCAUCAUATT against Tprt, for which the z-score was inactive: 0.0864.
With GGGAUUCGGGUUCGUAACUTT against Rbm9, the z-score was inactive: 0.927.
In the case of CCCGGAGCUUGAAUUACUGTT against Usp7, the z-score was inactive: -1.76.
On to GGUGGAAAAGCCUUACAGATT against Sry, for which the z-score was inactive: 0.125.
Consider GGAUACAGUUAAGAGAUAUTT against Xpr1, for which the z-score was inactive: 0.84.
The figure for CCACAGAGCUGGUGUAAAGTT against Tlx2 is inactive: -0.175; for GGAUUUCAACUUGUUCUAUTT against Mmp1b it is inactive: 0.608; for CCAUUACGAAUUUUGCUUUTT against Serpina11 it is inactive: 0.606.
Take GCAAUCCUAUUUGAUGACUTT against Ninj2: the z-score was inactive: -0.119.
As for GGUGUGUGAACCAUGUGUGTT against Olfr157, the figure is inactive: -1.02; as for GGAAGUCCAUCUCUUUUGCTT against Olfr56, inactive: 0.0693.
In the case of “GCACGAUUUAGACACCAAGTT against 2810012L14Rik”, the z-score is inactive: -2.17.
For the sequence “GGAGGCUAUUACUGUUUAUTT against 3110001A13Rik”, the z-score is inactive: 0.095.
As for GGAAAACUACCUCUUUUGATT against Cbll1, the figure is inactive: 1.57; as for “GGGACCAGAUAGAAAUUAUTT against D10Ertd610e”, inactive: 0.644; as for CCAACAUCCUUAAGCGGCUTT against Prss15, inactive: -1.06.
Take GCUGGUAAACAUAGGUGGCTT against C1qtnf4: the z-score is inactive: 0.367.
Turning to “GCAAAAGCGGGUCAAAAAATT against 1700108M19Rik”, the z-score is inactive: 1.61.
With GGAGUUCCUGAGACAGUACTT against Mcm5, the z-score is inactive: -0.0249.
The figure for GGUGCUUCUUCACUCCAUGTT against Vars2l is inactive: -0.704.
The figure for “GCUCAUCGCUGAUUCGACATT against A830025F02Rik” is inactive: 0.709.
For “CCAAAUUUUACUGCACGUGTT against 1500002M01Rik”, the z-score was inactive: -0.367.
For the sequence GCAAGAAGGUUAUUCUAUATT against Mjd, the z-score is inactive: -0.777.
Take “CCAUAGCACUAAAUCAGAUTT against 4933421G18Rik”: the z-score is inactive: 0.387.
GGCCAUCAGUGUGGAAUGUTT against BC004004: the z-score is inactive: -2.16.
GGUAAAAUCACGCAGUAAATT against Ppp1r3a: the z-score was inactive: -1.03.
Take GGAAUAUCCGUAAUAACUATT against Grin2b: the z-score was inactive: 0.706.
As for GGAUCUUGAUCCACAUCUCTT against Padi6, the figure is inactive: -0.331; as for GGCAUUUCAACUGGACCCATT against Lamb1-1, inactive: -0.686; as for GGUAGAAGCUGUCUUCAGATT against Mrps30, inactive: -0.429.
As for GGAAAAGAUAACUCAGACATT against Hrg, the figure is inactive: -0.0231; as for GGAACACACUUUUACCAUUTT against Clstn3, inactive: 0.00803.
As to “GCCAAUGAUAGAUUUGAACTT against D19Ertd737e”, the z-score was inactive: -0.0973.
The figure for “AUUACAAGGUUUGUGGAUATT against 9930109F21” is inactive: -0.43; for CGGUCCAAUCUUCUACCCUTT against Rnaset2 it is inactive: 0.965.
Take GGAAAAGGCCAAAAGCUGUTT against Rnd1: the z-score was inactive: -0.663.
The figure for CGGAAGAUGUUAAAACUAUTT against BC010552 is inactive: 0.853.
The figure for GGAAUCUCCGAAGCAUGAATT against Sorbs1 is inactive: -1.58.
With GGAACAAGAGAAUGAUGAATT against Col5a2, the z-score was inactive: -0.71.
Turning to CGCAGAUCAAUUUUCAUAGTT against Kif2a, the z-score was inactive: -1.25.
Turning to “GGUUCAGUUUGGAAAUGAATT against 1700009P03Rik”, the z-score is inactive: 0.642.
With “CCCUAUCCUAAAAGCAGACTT against E430018J23Rik”, the z-score was inactive: -0.324.
Take GGGUUUGACAACUUGACCUTT against Als2cr2: the z-score was inactive: -0.341.
“GGACUUGCCUUGAUCGCUATT against C730026E21Rik”: the z-score was inactive: 0.793.
In the case of GCCUUUGCGCAUAUGCUCUTT against BC022692, the z-score is inactive: -0.156.
On to UGCACUGAGGAAUAAGGACTT against Olfr111, for which the z-score is inactive: -0.491.
On to GGUUCUGGUUUAGAUGCUATT against Hist3h2a, for which the z-score was inactive: -0.662.
GGAUGAAAAUCAAAGAAGUTT against Sfrp1: the z-score was inactive: 0.433.
Turning to CCAGGAUACGGUGUGGUAUTT against Prss21, the z-score is inactive: 0.0483.
As to “GCCCACAGUCAUUAAACUATT against 9530066K23Rik”, the z-score is inactive: -0.906.
For the sequence GCACAUCAUUGCUACAGAGTT against Mars, the z-score was inactive: -2.78.
As for GGGUGAGAUGAAAUGCAUCTT against Efemp2, the z-score was inactive: -1.48.
On to “GGCAGCUAUUGCUCUGGAATT against 5730596B20Rik”, for which the z-score is inactive: -0.426.
For “GCGAUGAGAUUGUUGCUGUTT against 2900001O04Rik”, the z-score was inactive: -0.0787.
Take “GGGCUGUCUAAGAAUGCAATT against 4921520L01Rik”: the z-score was inactive: 0.172.
The figure for “CGUGUAGUGAAAAAUCUUGTT against 6030405A18” is inactive: 0.109; for “GGAUGAUCACAAAGGUAUATT against 4632404H12Rik” it is inactive: -1.27.
In the case of GCAUACUUUCCACAAUGAUTT against V1rb1, the z-score was inactive: 0.103.
For the sequence GCUAGCAACAUCUUGGGCATT against Cntn2, the z-score was inactive: -1.08.
Consider GGUUCGACGAAGAUCAGAGTT against Akap1, for which the z-score is inactive: -0.715.
For the sequence CCAGUUUGGUAAUCAUGAATT against Cyb561d2, the z-score is inactive: 0.894.
Turning to “GCCAUGUUUUAGACCUCCUTT against F730047E07Rik”, the z-score was inactive: -2.8.
As for CCUACUUGAGGUUCAUCGUTT against Zmynd11, the z-score is inactive: 0.307.
Turning to GCAUGAUUUAGAUCGAGUATT against Uqcrfs1, the z-score is inactive: -1.17.
On to GGCAAUGGCUUGGUCUUUUTT against Mapk6, for which the z-score was inactive: 0.0357.
Regarding GGGAAAUCUUCAUUUCUUUTT against Nsd1, the z-score is inactive: 0.0192.
Take GCAUUAACUGUCUUGAUCCTT against Olfr356: the z-score was inactive: 0.337.
As to CCUGGCCGUCAUAGAUCUCTT against Olfr464, the z-score is inactive: 0.584.
The figure for GGAAAUUGAAGAGAAAGUGTT against MGC6357 is inactive: -0.114; for CCGAAGCAUGAAGAAUCUATT against Tubd1 it is inactive: 1.51; for GCAAAAUAGAUCAGUAUUCTT against Gabra6 it is inactive: 0.595.
As for GGAGAUGUGUCCUUGACGATT against Havcr1, the z-score was inactive: 1.48.
For “GGGUUUUAUCAGCUAAAAATT against D3Bwg0562e”, the z-score was inactive: 2.55.
The figure for CGAAGUUCAUUCCUGUCUATT against Myf6 is inactive: -0.688; for “GCCUAGCUGACAUUAAAGGTT against 1700017I11Rik” it is inactive: 0.228; for GGACAUCAAGCCCUUACCATT against Rxrg it is inactive: -1.14.
For the sequence GGUGAAGUGGAAGAUUCGGTT against Ror2, the z-score is inactive: 0.0372.
As for GGAAGUAUUUGAUCAUGGATT against Smarca5, the figure is inactive: -1.14.
